Measured data: PubChem BioAssay AID720505 (Drosophila RNAi Screening Center, 2013)

- Aim: 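Fly regulators or components of the CRAC channel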 (primary screen)
- Cells: Drosophila S2R+ cells
- Reagents: long dsRNA against Drosophila genes
- Challenge: thapsigargin (2 µM) in calcium-free buffer to empty internal stores, then 2 mM calcium added back
- Measurement: 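Stores emptied by 2 µM thapsigargin without calcium, then 2 mM calcium re-added; fluo-4 fluorescence followed by FLIPR in 384-well plates, per-well averaged endpoint, raw; two screen passes, some wells retested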
- Direction: calcium signal: higher = more calcium entry after store depletion
- Call rule: 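Knock-downs counted as hits when calcium entry dropped relative to STIM1 positive and Rho1 negative controls present on each plate; roughly 1500 genes called, with reductions of differing size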
- Calls: active = called as lowering calcium entry; inactive = not called
The screen tested about 20,000 reagents; shown is a random part of those with a known target gene and a result. Of all reagents, about 2,100 (10%) are marked active. 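Raw plate signals without normalisation; calls rest on control-based scores that were not deposited; replicate 2 separates called from uncalled poorly.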 A number with no mark means an inactive call. Names joined by + are all predicted targets of the reagent. Not given: the amount of reagent, the time to read-out.

| predicted target | amplicon | calcium signal, replicate 1 | calcium signal, replicate 2 |
| --- | --- | --- | --- |
| pain (painless) | DRSC04273 | 140 | 190 |
| CG11865 | DRSC01872 | 96.4 | 107 |
| djl (don juan like) | DRSC12578 | 114 | 185 |
| Acsf3 (Acyl-CoA synthetase family member 3) | DRSC18146 | 69.1 (active) | 161 |
| Gale (UDP-galactose 4'-epimerase) | DRSC08234 | 51.4 (active) | 106 |
| CG11626 | DRSC14336 | 118 | 181 |
| Cdk7 (Cyclin-dependent kinase 7) | DRSC18451 | 63.8 (active) | 277 |
| Cdk7 (Cyclin-dependent kinase 7) | DRSC23327 | 107 | 156 |
| lin-52 | DRSC18106 | 217 | 142 |
| CG43666 + CG43667 + CG43668 | DRSC03829 | 87 | 6626 |
| CG43666 + CG43667 + CG43668 | DRSC04233 | 223 | 78.9 |
| Ip6k (Inositol hexakisphosphate kinase) | DRSC04054 | 93.6 | 95.8 |
| lic (licorne) | DRSC20347 | 116 | 127 |
| GAA1 (Glycosylphosphatidylinositol anchor attachment 1) | DRSC18267 | 144 | 87.4 |
| CG8407 | DRSC07167 | 93.6 | 89.5 |
| CR42546 (pseudo) | DRSC03711 | 100 | 120 |
| CG7714 | DRSC16300 | 162 | 144 |
| hyx (hyrax) | DRSC14462 | 114 | 121 |
| oys (oysgedart) | DRSC05203 | 73.8 | 96.1 |
| oys (oysgedart) | DRSC06751 | 171 | 163 |
| CG18493 | DRSC15334 | 188 | 187 |
| CG11227 | DRSC20476 | 219 | 93.2 |

The list goes on, starting with the last 2 of the part before.
| predicted target | amplicon | calcium signal, replicate 1 | calcium signal, replicate 2 |
| --- | --- | --- | --- |
| CG18493 | DRSC15334 | 188 | 187 |
| CG11227 | DRSC20476 | 219 | 93.2 |
| CG7966 | DRSC16356 | 116 | 102 |
| Spag1 (Spag1 axonemal dynein assembly factor) | DRSC15331 | 187 | 132 |
| CR43670 + grp + CR43671 + 1 more | DRSC03541 | 85.4 | 124 |
| CG13634 | DRSC14635 | 142 | 92.4 |
| CG42402 | DRSC21116 | 123 | 95.8 |
| CG14312 | DRSC14791 | 163 | 157 |
| CG7916 | DRSC01901 | 83.6 | 100 |
| hook | DRSC03545 | 101 | 112 |
| dila (dilatory) | DRSC06607 | 107 | 138 |
| Smg6 | DRSC16029 | 255 | 314 |
| ase (asense) | DRSC18739 | 73.8 (active) | 78.6 |
| Acer (Angiotensin-converting enzyme-related) | DRSC01852 | 79.8 | 70.7 |
